{"source": "patent US7879996B2", "about": "“Water soluble compounds” (priority 2007, dated 2011)", "origin": "cited, not measured here", "conditions": "solvent not stated at the place (context: water solubility); cited from earlier work", "note": "At least one compound was matched to its structure with a doubt left."}
{"smiles": "c12c3c4c5c1c1c6c7c2c2c8c3c3c9c4c4c%10c5c5c1c1c6c6c%11c7c2c2c7c8c3c3c8c9c4c4c9c%10c5c5c1c1c6c6c%11c2c2c7c3c3c8c4c4c9c5c1c1c6c2c3c41", "note": "[C60-fullerene]", "values": [{"measurement": "solubility", "result": "1.3e-05", "unit": "ng/mL"}]}
